Data source: PubChem BioAssay AID1259424 (University of Nebraska Medical Center, 2018)
Screen: 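Find knockdowns that reproduce the expression shifts seen after KSR1 loss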 (primary screen). System: human HCT116 colon cancer cells. Reagents: siRNA pool against human genes, 50 nM. Read-out: 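Log2 levels of six mRNAs (branched-DNA multiplex), adjusted by two reference genes and the non-targeting median, then scored against the average KSR1 knockdown pattern as Pearson r and euclidean distance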. Reading the numbers: mean correlation with KSR1 profile: higher = expression change more like KSR1 knockdown.
The deposit covers about 14,000 reagents; below is a random part of them. 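Higher correlation or smaller distance means closer resemblance to KSR1 loss; control wells, including KSR1 knockdowns, recur on many plates.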 Further read-outs or replicates are left out here. Reagent sequences are not shown. Not given: the time to read-out.

{"target gene":"SBF2","mean correlation with KSR1 profile":0.548}
{"target gene":"ITPA","mean correlation with KSR1 profile":0.178}
{"target gene":"CRELD2","mean correlation with KSR1 profile":0.148}
{"target gene":"THOC2","mean correlation with KSR1 profile":-0.117}
{"target gene":"DNAJC13","mean correlation with KSR1 profile":-0.453}
{"target gene":"CCDC8","mean correlation with KSR1 profile":0.536}
{"target gene":"PTPRJ","mean correlation with KSR1 profile":0.75}
{"target gene":"MRO","mean correlation with KSR1 profile":0.366}
{"target gene":"FAM168A","mean correlation with KSR1 profile":-0.685}
{"target gene":"ALOX15","mean correlation with KSR1 profile":-0.317}
{"target gene":"CDKAL1","mean correlation with KSR1 profile":-0.931}
{"target gene":"ADAMTS9","mean correlation with KSR1 profile":0.624}
{"target gene":"POU4F3","mean correlation with KSR1 profile":-0.329}
{"target gene":"EVPL","mean correlation with KSR1 profile":0.325}
{"target gene":"CCDC25","mean correlation with KSR1 profile":-0.703}
{"target gene":"PHB2","mean correlation with KSR1 profile":-0.369}
{"target gene":"FOXF1","mean correlation with KSR1 profile":0.325}
{"target gene":"GFER","mean correlation with KSR1 profile":-0.425}
{"target gene":"PCYT1B","mean correlation with KSR1 profile":-0.251}
{"target gene":"TARS2","mean correlation with KSR1 profile":0.381}
{"target gene":"RPL29","mean correlation with KSR1 profile":-0.116}
{"target gene":"OR5P3","mean correlation with KSR1 profile":0.944}
{"target gene":"ERP29","mean correlation with KSR1 profile":-0.79}
{"target gene":"ARL5A","mean correlation with KSR1 profile":-0.83}
{"target gene":"ZFTRAF1","mean correlation with KSR1 profile":0.331}
{"target gene":"SLC1A4","mean correlation with KSR1 profile":0.0713}
{"target gene":"AARSD1","mean correlation with KSR1 profile":0.359}
{"target gene":"GPBP1","mean correlation with KSR1 profile":0.341}

2 entries already listed, ordered by “mean correlation with KSR1 profile”, descending.
{"target gene":"MRO","mean correlation with KSR1 profile":0.366}
{"target gene":"FAM168A","mean correlation with KSR1 profile":-0.685}
